The data set has as its system EphA2 on transformed MDA-MB-231 cells. The data set can be described thus: Immunofluorescence binding to transformed cells. Conditions: 10 μg/ml, 4° C., 30 min; MDA-MB-231 versus MCF-10A. It counts as cell-based.

“Also recorded” adds a separate entry of the source.

We go through two molecules from US20100278838A1, “EPHA2 MONOCLONAL ANTIBODIES AND METHODS OF USE THEREOF” (MEDIMMUNE, LLC, priority 2002, published 2010).

B1: Eph099B-233.152: EphA2 monoclonal antibody; hybridoma ATCC PTA-5194; VL SEQ ID NO:17, VH SEQ ID NO:21 (antibody, listed as Homo sapiens, V domains shown)
VH: EVKLVESGGGLVQPGGSLSLSCAASGFTFTDYSMNWVRQPPGKALEWLGFIRNKANDYTTEYSASVKGRFTISRDNSQSILYLQMNALRAEDSATYYCVRYPRYHAMDSWGQGTSVTVSS
VL: DIVLTQSPATLSVTPGDSVNLSCRASQSISNNLHWYQQKSHESPRLLIKYVFQSISGIPSRFSGSGSGTDFTLSINSVETEDFGMYFCQQSNSWPLTFGAGTKLELK
Regarding B1, the “Binding to EphA2 on transformed versus non-transformed cells” value was “binds EphA2 expressed on both transformed and non-transformed cells”.

B2: EA2: EphA2 agonistic monoclonal antibody; ATCC deposit no. PTA-4380; co-pending application Ser. No. 10/436,783; VL SEQ ID NO:33, VH SEQ ID NO:37 (antibody, listed as Homo Sapiens, V domains shown)
VH: DVKLVESGGGLVKPGGSLKLSCAASGFTFSSYTMSWVRQTPEKRLEWVATISSGGTYTYYPDSVKGRFTISRDNAKNTLYLQMSSLKSEDTAMYYCTREAIFTYWGQGTLVTVSA
VL: DIKMTQSPSSMYASLGERVTITCKASQDINNYLSWFQQKPGKSPKTLIYRANRLVDGVPSRFSGSGSGQDYSLTISSLEYEDMGIYYCLKYDEFPYTFGGGTKLEIK
For the molecule B2, the “Binding to EphA2 on transformed versus non-transformed cells” value was “preferentially binds EphA2 on transformed cells; also recorded: preferentially binds cancer cells”.
